Our source for the binding values is PMC4513986.

In this assay the target is LDL receptor-related protein 1 (LRP1) (mouse (endogenous in peritoneal macrophages)). The assay is described as follows: co-IP; WT mouse peritoneal macrophage lysates incubated with antibody (anti-SR-BI, anti-Src or anti-LRP1), then protein A/G magnetic beads; precipitated partner detected by Western blotting. A general note: In western blotting, separated proteins are transferred to a membrane and probed.

Results are given in words; binding and its absence hold for the method and conditions named. In cells and extracts the contact can be indirect. A result given as binding can be weak or reduced; the word gives no strength.

B1: engulfment adaptor PTB domain (GULP) (protein, UniProt Q8K2A1 1-304)
chain: MNRAFSRKKDKTWMHTPEALSKHYIPYNAKFLGSTEVEQPKGTEVVRDAVRKLKFARHIKKSEGQKIPKVELQISIYGVKILEPKTKEVQHNCQLHRISFCADDKTDKRIFTFICKDSESNKHLCFVFDSEKCAEEITLTIGQAFDLAYRKFLESGGKDVETRKQIAGMQKRIQDLETENMELKNKVQDLESRLRTTQVSTSPAHGVTVMSPSTDIFDMIPFSPISHQSPTSARNGTQLPPIPSRSAETKRDLFGAEPFDPFNCGSGDFPPDIQSKLDEMQEGFKMGLTLEGTVFCLDPLDSRC
As for B1, the binding entry is reported as “binds”.
